Source: paper PMC7348167
No constants are given. Whether binding was seen depends on the method and setting. In cells and extracts the contact can be indirect. Some results given as binding are weak or reduced against the parent protein; the word gives no strength.

Chains of the proteins cited; added tags and fusions are not shown.
UniProt Q99683: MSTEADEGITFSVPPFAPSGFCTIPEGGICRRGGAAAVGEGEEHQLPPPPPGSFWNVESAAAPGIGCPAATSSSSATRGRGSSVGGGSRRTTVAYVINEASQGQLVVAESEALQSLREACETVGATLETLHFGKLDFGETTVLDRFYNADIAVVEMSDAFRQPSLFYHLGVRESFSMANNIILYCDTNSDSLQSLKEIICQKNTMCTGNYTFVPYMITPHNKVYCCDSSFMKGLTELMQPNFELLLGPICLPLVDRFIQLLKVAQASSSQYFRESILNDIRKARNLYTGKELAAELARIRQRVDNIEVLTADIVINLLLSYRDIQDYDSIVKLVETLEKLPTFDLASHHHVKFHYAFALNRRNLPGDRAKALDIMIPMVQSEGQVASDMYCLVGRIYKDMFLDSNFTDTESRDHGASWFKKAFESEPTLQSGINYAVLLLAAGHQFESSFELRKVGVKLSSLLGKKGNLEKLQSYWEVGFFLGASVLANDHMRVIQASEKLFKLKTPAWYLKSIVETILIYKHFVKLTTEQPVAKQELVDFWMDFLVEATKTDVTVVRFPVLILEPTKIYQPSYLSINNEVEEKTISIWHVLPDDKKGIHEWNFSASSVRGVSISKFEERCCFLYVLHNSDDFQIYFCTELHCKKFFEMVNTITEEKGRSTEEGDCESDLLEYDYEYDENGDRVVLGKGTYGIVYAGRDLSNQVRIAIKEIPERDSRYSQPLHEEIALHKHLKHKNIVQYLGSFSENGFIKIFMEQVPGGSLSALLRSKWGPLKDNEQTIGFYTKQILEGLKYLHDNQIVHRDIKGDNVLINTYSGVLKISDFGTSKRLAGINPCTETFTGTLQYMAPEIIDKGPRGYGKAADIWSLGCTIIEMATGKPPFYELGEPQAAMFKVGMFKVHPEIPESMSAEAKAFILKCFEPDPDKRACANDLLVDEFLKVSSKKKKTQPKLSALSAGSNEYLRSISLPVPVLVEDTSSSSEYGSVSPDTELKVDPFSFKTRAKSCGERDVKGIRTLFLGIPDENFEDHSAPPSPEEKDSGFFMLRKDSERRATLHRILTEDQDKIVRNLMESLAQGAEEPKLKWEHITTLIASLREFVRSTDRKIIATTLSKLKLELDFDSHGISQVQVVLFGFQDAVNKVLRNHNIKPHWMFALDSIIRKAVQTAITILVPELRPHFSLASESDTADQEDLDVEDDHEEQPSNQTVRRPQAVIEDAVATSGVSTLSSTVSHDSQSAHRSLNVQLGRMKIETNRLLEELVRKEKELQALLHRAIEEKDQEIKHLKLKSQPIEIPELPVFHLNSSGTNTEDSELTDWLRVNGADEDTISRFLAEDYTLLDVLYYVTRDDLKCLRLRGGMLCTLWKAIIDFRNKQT
UniProt P49407: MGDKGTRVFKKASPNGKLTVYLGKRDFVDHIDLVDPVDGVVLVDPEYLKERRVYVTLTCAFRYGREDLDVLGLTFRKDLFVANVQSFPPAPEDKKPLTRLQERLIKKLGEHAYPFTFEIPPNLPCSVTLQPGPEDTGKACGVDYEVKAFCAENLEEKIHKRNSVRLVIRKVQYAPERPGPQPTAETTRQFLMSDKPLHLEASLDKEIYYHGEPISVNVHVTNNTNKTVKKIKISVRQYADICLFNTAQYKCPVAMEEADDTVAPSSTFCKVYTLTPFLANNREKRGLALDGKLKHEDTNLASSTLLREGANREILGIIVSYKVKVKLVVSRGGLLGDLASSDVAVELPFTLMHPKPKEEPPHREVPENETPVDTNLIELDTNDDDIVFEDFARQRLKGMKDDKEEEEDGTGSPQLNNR

Molecular target: His-ASK1 (UniProt Q99683)
Assay: co-IP; L02 cells cotransfected for 2 days (Flag-ARRB1 and His-ASK1, or His-ASK1 and HA-TRAF6), sonicated in ice-cold IP lysis buffer; lysates incubated with antibody-bound beads (anti-His, anti-HA or anti-Flag) 2 h at room temperature or overnight at 4°C; Western blot; cells under normal condition, after H/R challenge, or after shRNA knock-down of ARRB1

binding: binds
Substance: Flag-ARRB1 (from UniProt P49407 1-418)
